The values that follow come from the supplement of paper PMC12067093, “Discovery and optimisation of a covalent ligand for TRIM25 and its application to targeted protein ubiquitination” (Chemical Science, 2025).

Chains of the proteins cited; added tags and fusions are not shown. Lines headed by an entry give the natural chain unless they say otherwise; changes in a name come on top.
UniProt O95425, whole entry, looked up: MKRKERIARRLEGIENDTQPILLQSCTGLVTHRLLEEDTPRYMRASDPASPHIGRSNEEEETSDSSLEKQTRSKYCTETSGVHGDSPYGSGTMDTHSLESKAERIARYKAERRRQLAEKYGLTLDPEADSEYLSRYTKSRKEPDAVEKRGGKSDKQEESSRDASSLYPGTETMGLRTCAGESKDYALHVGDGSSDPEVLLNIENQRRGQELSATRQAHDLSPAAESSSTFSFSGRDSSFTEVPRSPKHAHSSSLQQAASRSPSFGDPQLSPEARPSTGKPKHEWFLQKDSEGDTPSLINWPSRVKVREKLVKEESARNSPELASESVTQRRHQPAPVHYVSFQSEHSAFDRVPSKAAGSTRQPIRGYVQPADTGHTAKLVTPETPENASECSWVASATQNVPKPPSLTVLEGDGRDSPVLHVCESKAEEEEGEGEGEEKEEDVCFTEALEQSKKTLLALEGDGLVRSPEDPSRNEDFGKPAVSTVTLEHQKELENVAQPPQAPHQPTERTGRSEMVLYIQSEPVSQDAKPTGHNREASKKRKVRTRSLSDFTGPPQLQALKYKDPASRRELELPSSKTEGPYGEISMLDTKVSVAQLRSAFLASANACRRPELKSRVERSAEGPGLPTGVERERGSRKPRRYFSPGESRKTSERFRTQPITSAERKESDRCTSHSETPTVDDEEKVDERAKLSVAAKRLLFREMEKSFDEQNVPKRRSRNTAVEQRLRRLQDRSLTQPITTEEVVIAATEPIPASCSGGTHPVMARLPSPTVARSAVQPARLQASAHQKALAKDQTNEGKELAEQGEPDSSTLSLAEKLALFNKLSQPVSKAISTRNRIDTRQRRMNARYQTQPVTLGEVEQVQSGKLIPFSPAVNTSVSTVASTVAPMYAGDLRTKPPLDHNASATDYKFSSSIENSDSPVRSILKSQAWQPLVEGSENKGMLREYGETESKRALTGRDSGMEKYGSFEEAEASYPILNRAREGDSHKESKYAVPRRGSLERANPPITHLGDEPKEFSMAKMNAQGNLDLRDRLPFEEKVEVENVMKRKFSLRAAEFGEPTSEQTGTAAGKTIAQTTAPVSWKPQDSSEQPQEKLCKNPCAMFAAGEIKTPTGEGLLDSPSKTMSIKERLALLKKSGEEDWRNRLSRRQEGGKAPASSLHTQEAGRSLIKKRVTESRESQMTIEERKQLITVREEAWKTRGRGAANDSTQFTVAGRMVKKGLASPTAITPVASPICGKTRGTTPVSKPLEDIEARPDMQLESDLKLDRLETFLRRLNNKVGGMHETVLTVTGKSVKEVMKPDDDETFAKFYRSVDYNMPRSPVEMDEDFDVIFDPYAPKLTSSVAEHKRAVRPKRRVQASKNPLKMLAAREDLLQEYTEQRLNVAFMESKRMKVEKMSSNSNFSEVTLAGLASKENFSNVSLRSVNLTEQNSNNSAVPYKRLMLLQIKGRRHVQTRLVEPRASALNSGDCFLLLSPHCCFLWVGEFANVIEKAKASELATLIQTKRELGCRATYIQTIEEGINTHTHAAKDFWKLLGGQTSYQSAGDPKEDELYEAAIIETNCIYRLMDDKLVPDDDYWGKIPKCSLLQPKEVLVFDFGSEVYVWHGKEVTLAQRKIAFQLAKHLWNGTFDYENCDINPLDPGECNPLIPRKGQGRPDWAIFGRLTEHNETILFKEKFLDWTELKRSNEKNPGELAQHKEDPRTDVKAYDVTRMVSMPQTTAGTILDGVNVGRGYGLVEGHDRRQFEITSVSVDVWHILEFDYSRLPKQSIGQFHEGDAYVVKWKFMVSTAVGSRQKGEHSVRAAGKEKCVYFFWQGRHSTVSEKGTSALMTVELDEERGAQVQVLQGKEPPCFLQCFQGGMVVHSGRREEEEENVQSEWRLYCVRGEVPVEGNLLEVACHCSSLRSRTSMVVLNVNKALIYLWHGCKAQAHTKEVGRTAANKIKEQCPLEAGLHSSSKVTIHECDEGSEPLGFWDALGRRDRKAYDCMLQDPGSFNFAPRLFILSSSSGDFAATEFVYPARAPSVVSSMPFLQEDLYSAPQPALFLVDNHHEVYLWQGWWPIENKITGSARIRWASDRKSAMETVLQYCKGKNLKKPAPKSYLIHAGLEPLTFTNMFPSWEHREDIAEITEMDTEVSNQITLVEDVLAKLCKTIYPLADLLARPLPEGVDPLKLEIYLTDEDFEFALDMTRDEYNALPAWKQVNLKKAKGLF
UniProt O15400: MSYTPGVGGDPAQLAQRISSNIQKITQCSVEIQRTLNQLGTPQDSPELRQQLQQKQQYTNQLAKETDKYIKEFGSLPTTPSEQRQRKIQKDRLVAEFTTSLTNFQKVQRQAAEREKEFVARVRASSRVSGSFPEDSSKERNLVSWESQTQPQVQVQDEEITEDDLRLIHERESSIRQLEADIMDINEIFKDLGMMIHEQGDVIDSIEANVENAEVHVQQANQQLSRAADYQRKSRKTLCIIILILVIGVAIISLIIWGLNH
UniProt Q9Y5Y6: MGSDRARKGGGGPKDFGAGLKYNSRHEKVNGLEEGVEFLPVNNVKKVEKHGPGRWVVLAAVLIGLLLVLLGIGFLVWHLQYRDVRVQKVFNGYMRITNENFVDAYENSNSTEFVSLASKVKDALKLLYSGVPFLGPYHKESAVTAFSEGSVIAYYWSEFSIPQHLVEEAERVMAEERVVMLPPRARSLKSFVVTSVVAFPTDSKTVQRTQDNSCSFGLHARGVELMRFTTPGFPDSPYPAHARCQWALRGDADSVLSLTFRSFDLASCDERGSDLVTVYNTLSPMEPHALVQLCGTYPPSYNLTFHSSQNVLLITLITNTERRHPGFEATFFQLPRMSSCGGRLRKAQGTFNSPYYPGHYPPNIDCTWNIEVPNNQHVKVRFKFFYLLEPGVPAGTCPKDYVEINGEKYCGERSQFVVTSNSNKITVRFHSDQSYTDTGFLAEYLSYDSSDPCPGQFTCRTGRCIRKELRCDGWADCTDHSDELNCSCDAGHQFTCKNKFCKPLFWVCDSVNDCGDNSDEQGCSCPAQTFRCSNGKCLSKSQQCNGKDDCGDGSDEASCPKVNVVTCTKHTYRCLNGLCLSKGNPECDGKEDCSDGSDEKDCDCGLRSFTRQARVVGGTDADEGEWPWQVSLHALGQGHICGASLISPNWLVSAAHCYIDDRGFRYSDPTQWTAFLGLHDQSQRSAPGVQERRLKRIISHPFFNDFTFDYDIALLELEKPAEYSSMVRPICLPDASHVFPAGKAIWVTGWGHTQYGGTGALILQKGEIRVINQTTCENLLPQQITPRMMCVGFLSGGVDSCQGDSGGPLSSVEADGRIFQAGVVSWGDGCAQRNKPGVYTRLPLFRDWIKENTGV
UniProt Q9Y2Z0: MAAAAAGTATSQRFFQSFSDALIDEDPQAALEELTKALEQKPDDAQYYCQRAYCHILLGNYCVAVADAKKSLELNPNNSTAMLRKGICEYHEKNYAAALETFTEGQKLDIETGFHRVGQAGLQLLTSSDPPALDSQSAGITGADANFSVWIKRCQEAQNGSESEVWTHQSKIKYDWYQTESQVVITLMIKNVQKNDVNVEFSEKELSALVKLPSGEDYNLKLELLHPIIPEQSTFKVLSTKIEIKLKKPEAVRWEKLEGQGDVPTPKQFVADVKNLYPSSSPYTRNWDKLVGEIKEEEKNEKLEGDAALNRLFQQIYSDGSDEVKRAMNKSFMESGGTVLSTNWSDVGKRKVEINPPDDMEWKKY
UniProt P56962: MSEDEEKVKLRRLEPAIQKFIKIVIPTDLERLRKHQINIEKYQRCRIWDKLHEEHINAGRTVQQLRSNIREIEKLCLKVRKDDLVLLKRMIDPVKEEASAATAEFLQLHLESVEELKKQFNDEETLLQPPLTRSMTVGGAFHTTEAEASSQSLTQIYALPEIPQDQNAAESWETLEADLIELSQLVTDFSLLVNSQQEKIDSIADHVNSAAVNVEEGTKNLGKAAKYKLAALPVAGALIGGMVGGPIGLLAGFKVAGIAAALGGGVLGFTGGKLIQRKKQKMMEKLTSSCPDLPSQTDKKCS
UniProt Q15022: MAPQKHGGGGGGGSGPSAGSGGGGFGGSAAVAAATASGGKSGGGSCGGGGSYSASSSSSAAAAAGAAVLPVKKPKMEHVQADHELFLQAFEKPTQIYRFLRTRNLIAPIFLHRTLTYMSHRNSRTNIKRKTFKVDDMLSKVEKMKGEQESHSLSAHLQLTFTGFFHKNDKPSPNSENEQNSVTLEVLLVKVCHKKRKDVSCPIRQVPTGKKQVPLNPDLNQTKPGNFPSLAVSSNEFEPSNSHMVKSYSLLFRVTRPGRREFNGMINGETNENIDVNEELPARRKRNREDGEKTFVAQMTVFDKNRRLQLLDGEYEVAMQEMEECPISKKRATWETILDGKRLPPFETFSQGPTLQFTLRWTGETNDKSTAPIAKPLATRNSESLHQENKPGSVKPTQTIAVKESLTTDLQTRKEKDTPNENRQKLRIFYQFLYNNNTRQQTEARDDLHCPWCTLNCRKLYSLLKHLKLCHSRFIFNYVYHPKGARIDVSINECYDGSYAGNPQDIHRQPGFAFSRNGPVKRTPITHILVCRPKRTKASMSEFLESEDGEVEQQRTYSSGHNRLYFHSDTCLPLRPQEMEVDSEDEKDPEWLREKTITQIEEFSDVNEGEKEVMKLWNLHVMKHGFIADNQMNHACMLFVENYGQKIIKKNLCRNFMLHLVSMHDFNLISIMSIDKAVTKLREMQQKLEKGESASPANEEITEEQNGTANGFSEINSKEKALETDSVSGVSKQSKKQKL
UniProt Q9Y5M8: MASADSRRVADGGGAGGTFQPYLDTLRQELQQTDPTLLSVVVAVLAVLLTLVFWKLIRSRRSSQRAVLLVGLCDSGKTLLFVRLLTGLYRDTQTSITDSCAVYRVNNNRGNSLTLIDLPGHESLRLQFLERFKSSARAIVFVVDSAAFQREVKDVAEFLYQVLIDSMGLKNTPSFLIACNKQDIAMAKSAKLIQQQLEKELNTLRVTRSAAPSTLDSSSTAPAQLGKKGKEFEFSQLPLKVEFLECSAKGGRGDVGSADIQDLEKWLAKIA
UniProt O00186: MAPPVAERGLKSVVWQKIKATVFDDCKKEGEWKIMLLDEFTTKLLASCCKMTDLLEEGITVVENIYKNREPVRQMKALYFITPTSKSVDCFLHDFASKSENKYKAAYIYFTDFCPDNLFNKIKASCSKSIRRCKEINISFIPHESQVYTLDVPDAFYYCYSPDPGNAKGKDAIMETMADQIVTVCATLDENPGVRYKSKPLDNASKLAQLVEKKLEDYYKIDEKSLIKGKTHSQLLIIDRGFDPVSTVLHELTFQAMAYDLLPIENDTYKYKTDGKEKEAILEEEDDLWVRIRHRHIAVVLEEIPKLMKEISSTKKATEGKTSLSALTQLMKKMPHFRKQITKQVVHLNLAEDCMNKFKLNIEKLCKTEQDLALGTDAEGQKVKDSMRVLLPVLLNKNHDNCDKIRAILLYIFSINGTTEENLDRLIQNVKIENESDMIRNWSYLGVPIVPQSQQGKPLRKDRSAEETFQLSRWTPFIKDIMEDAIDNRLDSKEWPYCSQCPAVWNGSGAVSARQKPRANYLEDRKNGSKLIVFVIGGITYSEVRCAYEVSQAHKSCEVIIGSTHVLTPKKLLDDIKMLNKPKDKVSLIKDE
UniProt P31948, whole entry, looked up: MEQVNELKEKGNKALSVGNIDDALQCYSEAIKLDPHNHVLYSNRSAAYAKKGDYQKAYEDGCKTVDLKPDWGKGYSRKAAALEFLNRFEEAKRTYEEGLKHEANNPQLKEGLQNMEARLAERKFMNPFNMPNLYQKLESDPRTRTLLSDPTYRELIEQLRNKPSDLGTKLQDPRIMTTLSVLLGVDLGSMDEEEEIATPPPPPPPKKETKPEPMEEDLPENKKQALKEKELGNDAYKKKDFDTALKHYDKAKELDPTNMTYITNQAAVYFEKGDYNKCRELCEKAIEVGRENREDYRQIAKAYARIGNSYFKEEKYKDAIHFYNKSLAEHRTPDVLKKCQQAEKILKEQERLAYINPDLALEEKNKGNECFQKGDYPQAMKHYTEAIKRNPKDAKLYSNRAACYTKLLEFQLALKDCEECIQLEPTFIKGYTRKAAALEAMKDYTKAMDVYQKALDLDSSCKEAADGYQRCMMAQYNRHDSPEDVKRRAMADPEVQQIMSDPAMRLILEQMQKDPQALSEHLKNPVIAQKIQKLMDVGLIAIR
UniProt Q9Y3F4: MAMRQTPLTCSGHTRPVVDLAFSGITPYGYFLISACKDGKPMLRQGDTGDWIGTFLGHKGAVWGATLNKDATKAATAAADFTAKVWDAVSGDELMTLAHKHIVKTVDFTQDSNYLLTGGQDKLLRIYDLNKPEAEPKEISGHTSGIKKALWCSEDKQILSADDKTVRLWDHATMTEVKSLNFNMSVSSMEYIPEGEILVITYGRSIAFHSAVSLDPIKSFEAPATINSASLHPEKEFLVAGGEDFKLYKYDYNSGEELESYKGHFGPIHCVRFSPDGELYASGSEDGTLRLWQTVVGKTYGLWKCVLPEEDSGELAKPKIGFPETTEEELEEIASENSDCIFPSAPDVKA

Compound in this assay: Cc1cc(ccc1-c1ccccc1)C(=O)N1CCCN(CC1)C(=O)CCl [compound 10]
As to the kind of experiment: probe-labelled cysteine peptide fold change vs DMSO (competition) (log2 fold change); higher = less target engagement (more negative = stronger competition). Particulars: THP-1, incubation time: 4 h.

This is one part of the list.
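Further: competitive profiling in live THP-1 cells: cysteine peptides tagged with an iodoacetamide desthiobiotin (IA-DTB) probe, intensity after compound treatment relative to DMSO-treated cells.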

As to “STK24_Q9Y6E0_394_SQACGGNLGSIEELR (UniProt Q9Y6E0)”, the “probe-labelled cysteine peptide fold change” value is, setting by setting: (10 µM) -0.158; (50 µM) -0.025.
For “SUCLG1_P53597_60_IICQGFTGK (UniProt P53597)”, in that order: -0.0662 and -0.141.
For “SRSF1_Q07955_16_GPAGNNDCR (UniProt Q07955)”, in that order: -0.0645 and 0.315.
For “SVIL_O95425_76_YCTETSGVHGDSPYGSGTMDTHSLESK (UniProt O95425)”, in that order: 0.144 and 0.114.
“STRIP1_Q5VSL9_798_AHSNPDFLPVDNCLQSVLGQR (UniProt Q5VSL9)”: the “probe-labelled cysteine peptide fold change” value (10 µM) is -0.0541 and the “probe-labelled cysteine peptide fold change” value (50 µM) is -0.196.
Turning to “SUPT4H1_P63272_16+19_ACLLCSLVK (UniProt P63272)”, the “probe-labelled cysteine peptide fold change” value is, setting by setting: (10 µM) 0.0559; (50 µM) -0.363.
The corresponding values for “SRSF7_Q16629_119_GHYAYDCHR (UniProt Q16629)” are 0.0697 and 0.341.
The corresponding values for “STARD7_Q9NQZ5_362_KNEGSCGPAR (UniProt Q9NQZ5)” are -0.295 and -0.378.
Turning to “SSRP1_Q08945_207_ELQCLTPR (UniProt Q08945)”, the “probe-labelled cysteine peptide fold change” value (10 µM) came to 0.0587 and the “probe-labelled cysteine peptide fold change” value (50 µM) came out at 0.0918.
For “STX7_O15400_28_ITQCSVEIQR (UniProt O15400)”, in that order: 0.218 and 0.16.
For “ST14_Q9Y5Y6_214_TQDNSCSFGLHAR (UniProt Q9Y5Y6)”, in that order: -0.00476 and -0.427.
The corresponding values for “SUGT1_Q9Y2Z0_62_AYCHILLGNYCVAVADAK (UniProt Q9Y2Z0)” are 0.116 and -0.0939.
On to “STX17_P56962_290_LTSSCPDLPSQTDKK (UniProt P56962)”, for which the “probe-labelled cysteine peptide fold change” value reads like this: (10 µM) -0.37; (50 µM) -0.613.
The corresponding values for “SUPT6H_Q7KZ85_1465_EKPTFIPYFICACK (UniProt Q7KZ85)” are -0.0348 and -0.0178.
In the case of “STAM2_O75886_85_IFHLEVCSR (UniProt O75886)”, the “probe-labelled cysteine peptide fold change” value (10 µM) was 0.085 and the “probe-labelled cysteine peptide fold change” value (50 µM) was determined as 0.212.
The corresponding values for “STAT3_P40763_108_CLWEESR (UniProt P40763)” are 0.0539 and -0.0138.
The corresponding values for “SUZ12_Q15022_531_RTPITHILVCR (UniProt Q15022)” are -0.113 and -0.00139.
The corresponding values for “SUPT4H1_P63272_36_TIDQFEYDGCDNCDAYLQMK (UniProt P63272)” are 0.121 and -0.288.
For “SUN1_O94901_657_CSETYETK (UniProt O94901)”, the “probe-labelled cysteine peptide fold change” value (10 µM) was -0.221 and the “probe-labelled cysteine peptide fold change” value (50 µM) was -0.151.
On to “SUPT5H_O00267_1012_SVTGGMCSVYLK (UniProt O00267)”, for which the “probe-labelled cysteine peptide fold change” value stood at 0.159 (10 µM) and 0.0393 (50 µM).
The corresponding values for “ST14_Q9Y5Y6_602+604_DCDCGLR (UniProt Q9Y5Y6)” are -0.217 and -1.07.
For “SRPRB_Q9Y5M8_246_VEFLECSAK (UniProt Q9Y5M8)”, the “probe-labelled cysteine peptide fold change” value (10 µM) is -0.0899 and the “probe-labelled cysteine peptide fold change” value (50 µM) is 0.0703.
The corresponding values for “SUPT6H_Q7KZ85_1169_LIICNVTGIAHR (UniProt Q7KZ85)” are 0.207 and 0.256.
The corresponding values for “STAG1_Q8WVM7_636_HVESDVLEACSK (UniProt Q8WVM7)” are 0.218 and 0.335.
With “SUPT6H_Q7KZ85_1435_YYQDCSGGDRK (UniProt Q7KZ85)”, the “probe-labelled cysteine peptide fold change” value runs as follows: (10 µM) 0.014; (50 µM) 0.117.
For “STXBP3_O00186_48_LLASCCK (UniProt O00186)”, in that order: -0.0403 and -0.763.
For “STIP1_P31948_339_CQQAEK (UniProt P31948)”, in that order: 0.44 and 0.063.
For “SUGT1_Q9Y2Z0_54_AYCHILLGNYCVAVADAKK (UniProt Q9Y2Z0)”, in that order: -0.0997 and -0.395.
In the case of “SURF2_Q15527_29+38_CILTGHELPCR (UniProt Q15527)”, the “probe-labelled cysteine peptide fold change” value was 0.0902 (10 µM) and -0.0729 (50 µM).
The corresponding values for “STXBP2_Q15833_365_LCSVEQDLAMGSDAEGEK (UniProt Q15833)” are -0.172 and -0.0811.
For “STRAP_Q9Y3F4_305_CVLPEEDSGELAK (UniProt Q9Y3F4)”, in that order: 0.107 and 0.318.
Turning to “STXBP3_O00186_26_ATVFDDCK (UniProt O00186)”, the “probe-labelled cysteine peptide fold change” value is -0.195 (10 µM) and 0.039 (50 µM).
With “STK11IP_Q8N1F8_918_NCVSATEEEVTPQHR (UniProt Q8N1F8)”, the “probe-labelled cysteine peptide fold change” value was -0.116 (10 µM) and -0.123 (50 µM).
For “SUPT6H_Q7KZ85_796_DHPVFCALVNGEGEVTDFLR (UniProt Q7KZ85)”, in that order: 0.214 and 0.374.
In the case of “STXBP3_O00186_26_ATVFDDCKK (UniProt O00186)”, the “probe-labelled cysteine peptide fold change” value reads like this: (10 µM) -0.187; (50 µM) -0.253.
The corresponding values for “SUGT1_Q9Y2Z0_49_ALEQKPDDAQYYCQR (UniProt Q9Y2Z0)” are -0.0707 and -0.276.
For “SVIL_O95425_1903_GEVPVEGNLLEVACHCSSLR (UniProt O95425)”, in that order: 0.0682 and -0.163.
The corresponding values for “STXBP2_Q15833_158_EIHLAFLPYEAQVFSLDAPHSTYNLYCPFRAEER (UniProt Q15833)” are -0.0353 and -0.613.
As to “SUPT6H_Q7KZ85_939_RIQDPLIEFAQVCSSDEDILCLK (UniProt Q7KZ85)”, the “probe-labelled cysteine peptide fold change” value by setting is: (10 µM) -0.188; (50 µM) -0.239.
The corresponding values for “SUPT6H_Q7KZ85_990_AIAHPYSQALIQYVCGLGPR (UniProt Q7KZ85)” are 0.0872 and 0.126.
